Assay results taken from PubChem BioAssay AID248 (DTP/NCI, 2004).
The list shows only some results of the screen, not a fair sample: it is rich in T/C values a quarter to a half above the control, in often repeated tests (any T/C) and in doses without a T/C. Further doses and runs are listed elsewhere. T/C is the treated group as % of the vehicle group. Some doses have a count of surviving animals in place of a T/C: the source files T/C as zero there, which appears to mark a toxic dose or a test without result, not a measured value. Some survivor counts are full or nearly so, which does not show that the dose was tolerated: the source hardly ever lists a survival T/C far under the control, and the zero likely stands for such cases as well. Counts of survivors are from the toxicity check (mostly the fifth day) where no day follows; animals may have died later. Schedules are NCI's codes, taken here to give the interval after Q, in days (D) or hours (H), and the number of doses after X. Some entries hold several experiments; their values stand side by side, smallest first. Additions like (4×) say how often a value occurs here. Some schedules carry Z or #; the key to these is not given. Where survival is the endpoint, the PubChem record calls one and a half times the control and up active, and a quarter to a half above the control has no call in these data; cut-offs in other NCI protocols can differ. Some T/C values carry the count of animals alive at the toxicity check (mostly the fifth day); where none is given, no animal had died by that day.

Test system: L1210 leukemia ip in BDF1 mice, survival T/C
Test: NCI In Vivo Anticancer Drug Screen. Data for tumor model L1210 Leukemia (intraperitoneal) in B6D2F1 (BDF1) mice
Conditions: T/C endpoint: mean survival time, higher T/C = longer survival
[1] = dose: 100.0 mg/kg/injection, schedule: Q01DX009 (ip), vehicle: saline
[2] = dose: 400.0 mg/kg/injection, schedule: Q01DX009 (ip), vehicle: saline
[3] = dose: 200.0 mg/kg/injection, schedule: Q01DX009 (ip), vehicle: water
[4] = dose: 400.0 mg/kg/injection, schedule: Q04DX003 (ip), vehicle: water
[5] = dose: 400.0 mg/kg/injection, schedule: Q04DX002 (ip), vehicle: saline with Tween-80
[6] = dose: 400.0 mg/kg/injection, schedule: Q04DX003 (ip), vehicle: saline
[7] = dose: 200.0 mg/kg/injection, schedule: Q04DX003 (ip), vehicle: saline with Tween-80
[8] = dose: 400.0 mg/kg/injection, schedule: Q04DX003 (ip), vehicle: saline with Tween-80
[9] = dose: 400.0 mg/kg/injection, schedule: Q04DX002 (ip), vehicle: Klucel (hydroxypropylcellulose) (HPC)
[10] = dose: 400.0 mg/kg/injection, schedule: Q01DX001 (ip), vehicle: saline
[11] = dose: 100.0 mg/kg/injection, schedule: Q01DX001 (ip), vehicle: saline
[12] = dose: 200.0 mg/kg/injection, schedule: Q01DX001 (ip), vehicle: saline

With `NC(N)=NO` the T/C (dose: 75.0 mg/kg/injection, schedule: Q01DX Z (ip), vehicle: other) was 129 % of control [4 of 6 alive], the T/C [1] was 139 % of control and the T/C (dose: 150.0 mg/kg/injection, schedule: Q01DX009 (ip), vehicle: saline) was 128 % of control. For the same compound, the T/C (dose: 200.0 mg/kg/injection, schedule: Q01DX009 (ip), vehicle: saline) was 133 and 134 % of control, the T/C (dose: 200.0 mg/kg/injection, schedule: Q01DX Z (ip), vehicle: saline) was 125 % of control and the T/C (dose: 288.0 mg/kg/injection, schedule: Q01DX009 (ip), vehicle: saline) was 127 % of control. The T/C (dose: 300.0 mg/kg/injection, schedule: Q01DX009 (ip), vehicle: saline) was 136 % of control, the T/C [2] was 139 % of control and the survivor count [2] was 3 of 10. For the same compound, the T/C (dose: 400.0 mg/kg/injection, schedule: Q01DX Z (ip), vehicle: saline) was 128 % of control [9 of 10 alive], the T/C (dose: 433.0 mg/kg/injection, schedule: Q01DX009 (ip), vehicle: saline) was 130 % of control and the survivor count (dose: 500.0 mg/kg/injection, schedule: Q01DX Z (ip), vehicle: saline) was 0 of 10. For the same compound, the survivor count (dose: 600.0 mg/kg/injection, schedule: Q01DX009 (ip), vehicle: saline) was 0 of 10, the survivor count (dose: 600.0 mg/kg/injection, schedule: Q01DX Z (ip), vehicle: saline) was 0 of 10 and the survivor count (dose: 650.0 mg/kg/injection, schedule: Q01DX009 (ip), vehicle: saline) was 4 of 10. The survivor count (dose: 732.0 mg/kg/injection, schedule: Q03HX024 (ip), vehicle: saline) was 0 of 10, the survivor count (dose: 800.0 mg/kg/injection, schedule: Q01DX009 (ip), vehicle: saline) was 0 of 10 and the survivor count (dose: 800.0 mg/kg/injection, schedule: Q04DX003 (ip), vehicle: saline) was 0 of 10. The survivor count (dose: 975.0 mg/kg/injection, schedule: Q01DX009 (ip), vehicle: saline) was 0 of 10 and the survivor count (dose: 1463.0 mg/kg/injection, schedule: Q01DX009 (ip), vehicle: saline) was 0 of 10.
`CC([NH-])=O.CC([NH-])=O.[Cl][Pt+2][Cl]` was tested, and the T/C [3] was 132 % of control [4 of 6 alive] and the survivor count [4] was 3 of 6.
For `[Cl][Hg][CH2]CN1CCCCC1`, the survivor count (dose: 100.0 mg/kg/injection, schedule: Q04DX002 (ip), vehicle: saline with Tween-80) was 0 of 3, the survivor count (dose: 200.0 mg/kg/injection, schedule: Q04DX002 (ip), vehicle: saline with Tween-80) was 0 of 3 and the survivor count [5] was 0 of 3.
With `Oc1ccc(CCCc2ccc3c(c2)OCO3)cc1` the survivor count [5] was 1 of 3.
For `CCCCCCCCCCCCCC(=O)N(CC)CC`, the survivor count (dose: 400.0 mg/kg/injection, schedule: Q01DX009 (ip), vehicle: carboxymethylcellulose (CMC)) was 3 of 3 and 6 of 6.
With `COC(=O)c1ccc(OC(=O)Nc2ccccc2F)cc1` the survivor count (dose: 200.0 mg/kg/injection, schedule: Q01DX009 (ip), vehicle: saline with Tween-80) was 2 of 6 and the survivor count (dose: 400.0 mg/kg/injection, schedule: Q01DX009 (ip), vehicle: saline with Tween-80) was 0 of 6.
`CC12CCC3C4CCC(O)CC4=CCC3C1CCC2=O` (configuration not stated) was tested, and the survivor count (dose: 200.0 mg/kg/injection, schedule: Q01DX001 (ip), vehicle: Klucel (hydroxypropylcellulose) (HPC)) was 3 of 3.
With `Cc1ccc(C#N)s1` the T/C (dose: 25.0 mg/kg/injection, schedule: Q04DX003 (ip), vehicle: saline) was 127 % of control, the T/C (dose: 35.0 mg/kg/injection, schedule: Q04DX003 (ip), vehicle: saline) was 125 % of control [5 of 6 alive] and the survivor count (dose: 50.0 mg/kg/injection, schedule: Q01DX009 (ip), vehicle: other) was 1 of 6. For the same compound, the survivor count (dose: 50.0 mg/kg/injection, schedule: Q04DX003 (ip), vehicle: saline) was 0 of 6, the survivor count (dose: 100.0 mg/kg/injection, schedule: Q04DX003 (ip), vehicle: saline) was 0 of 6 and 3 of 6 and the survivor count (dose: 200.0 mg/kg/injection, schedule: Q04DX003 (ip), vehicle: saline) was 2 of 6. For the same compound, the survivor count [6] was 0 of 6.
With `CC1(C)CC(N=Cc2ccccc2O)CC(C)(C)N1O.CC1(C)CC(N=Cc2ccccc2O)CC(C)(C)N1O.[Ni]` the survivor count [7] was 0 of 4 and the survivor count [8] was 1 of 4.
For `COc1ccc(CCNC(=O)Cc2ccc(OC)c(OC)c2)cc1OC`, the survivor count (dose: 100.0 mg/kg/injection, schedule: Q04DX003 (ip), vehicle: saline with Tween-80) was 6 of 6 and the survivor count [8] was 6 of 6.
With `CCOC(=O)c1oc2c(C(C)=O)c(O)ccc2c1C` the T/C [9] was 125 % of control and the survivor count [9] was 3 of 3.
In the case of `COc1ccc2c(c1)N(CC(C)C[N+](C)(C)CCCCCCCCCC[N+](C)(C)CC(C)CN1c3ccccc3Sc3ccc(OC)cc31)c1ccccc1S2` (configuration not stated), the survivor count (dose: 100.0 mg/kg/injection, schedule: Q01DX009 (ip), vehicle: saline + alcohol) is reported as 0 of 6, the survivor count (dose: 200.0 mg/kg/injection, schedule: Q01DX009 (ip), vehicle: saline + alcohol) is reported as 0 of 6 and the survivor count (dose: 400.0 mg/kg/injection, schedule: Q01DX009 (ip), vehicle: saline + alcohol) is reported as 0 of 6.
`CCCCCCCNC(=O)Nc1cccc(Cl)c1C` was tested, and the survivor count (dose: 200.0 mg/kg/injection, schedule: Q04DX003 (ip), vehicle: Klucel (hydroxypropylcellulose) (HPC)) was 6 of 6 and the survivor count (dose: 400.0 mg/kg/injection, schedule: Q04DX003 (ip), vehicle: Klucel (hydroxypropylcellulose) (HPC)) was 6 of 6.
With `CCN(CC)CCSC(=O)c1ccc([N+](=O)[O-])cc1` the survivor count [10] was 0 of 4.
With `CN1CCCC1c1cccc([N+](=O)[O-])c1` (configuration not stated) the survivor count (dose: 200.0 mg/kg/injection, schedule: Q01DX001 (ip), vehicle: acetone) was 0 of 6 and the survivor count (dose: 400.0 mg/kg/injection, schedule: Q01DX001 (ip), vehicle: acetone) was 0 of 6.
For `O=C(OCCC[P+](c1ccccc1)(c1ccccc1)c1ccccc1)c1ccccc1`, the survivor count (dose: 100.0 mg/kg/injection, schedule: Q01DX001 (ip), vehicle: saline with Tween-80) was 1 of 6, the survivor count (dose: 200.0 mg/kg/injection, schedule: Q01DX001 (ip), vehicle: saline with Tween-80) was 0 of 6 and the survivor count (dose: 400.0 mg/kg/injection, schedule: Q01DX001 (ip), vehicle: saline with Tween-80) was 0 of 6.
For `Cc1cc2oc(=O)cc(C)c2c(=O)o1`, the survivor count (dose: 400.0 mg/kg/injection, schedule: Q01DX001 (ip), vehicle: carboxymethylcellulose (CMC)) was 4 of 4.
In the case of `SCCCN1CCCCC1`, the survivor count (dose: 50.0 mg/kg/injection, schedule: Q01DX001 (ip), vehicle: saline) is reported as 2 of 4, the survivor count [11] is reported as 0 of 4 and the survivor count [12] is reported as 0 of 4. For the same compound, the survivor count [10] was 0 of 4.
For `CCN(CC)CCCC(C)Nc1cccc2c1C(=O)c1cccc(NC(C)CCCN(CC)CC)c1C2=O` (configuration not stated), the survivor count (dose: 50.0 mg/kg/injection, schedule: Q01DX009 (ip), vehicle: saline) was 0 of 3 and 1 of 3, the survivor count [1] was 0 of 3 and the survivor count (dose: 100.0 mg/kg/injection, schedule: Q04DX002 (ip), vehicle: saline) was 1 of 3 and 3 of 3. For the same compound, the survivor count (dose: 200.0 mg/kg/injection, schedule: Q04DX002 (ip), vehicle: saline) was 0 of 3 and 1 of 3 and the survivor count (dose: 400.0 mg/kg/injection, schedule: Q04DX002 (ip), vehicle: saline) was 0 of 3 (2×).
`N#CC(C#N)=C1Cc2ccccc2C1` was tested, and the survivor count [7] was 2 of 6 and the survivor count [8] was 2 of 6.
`Clc1ccccc1C[P+](c1ccccc1)(c1ccccc1)c1ccccc1` was tested, and the survivor count [11] was 0 of 6, the survivor count [12] was 0 of 6 and the survivor count [10] was 0 of 6.
For `CC(=O)N/N=C(/C)C(=O)O`, the survivor count [3] was 5 of 6 and the survivor count [4] was 5 of 6.
For `C(=N\c1ncn[nH]1)/Nc1ncn[nH]1`, the survivor count [6] was 4 of 6.
